The target in this test is T1, multimerin 1 (MMRN1), bait of the IP-MS (UniProt Q13201).
T1 sequence: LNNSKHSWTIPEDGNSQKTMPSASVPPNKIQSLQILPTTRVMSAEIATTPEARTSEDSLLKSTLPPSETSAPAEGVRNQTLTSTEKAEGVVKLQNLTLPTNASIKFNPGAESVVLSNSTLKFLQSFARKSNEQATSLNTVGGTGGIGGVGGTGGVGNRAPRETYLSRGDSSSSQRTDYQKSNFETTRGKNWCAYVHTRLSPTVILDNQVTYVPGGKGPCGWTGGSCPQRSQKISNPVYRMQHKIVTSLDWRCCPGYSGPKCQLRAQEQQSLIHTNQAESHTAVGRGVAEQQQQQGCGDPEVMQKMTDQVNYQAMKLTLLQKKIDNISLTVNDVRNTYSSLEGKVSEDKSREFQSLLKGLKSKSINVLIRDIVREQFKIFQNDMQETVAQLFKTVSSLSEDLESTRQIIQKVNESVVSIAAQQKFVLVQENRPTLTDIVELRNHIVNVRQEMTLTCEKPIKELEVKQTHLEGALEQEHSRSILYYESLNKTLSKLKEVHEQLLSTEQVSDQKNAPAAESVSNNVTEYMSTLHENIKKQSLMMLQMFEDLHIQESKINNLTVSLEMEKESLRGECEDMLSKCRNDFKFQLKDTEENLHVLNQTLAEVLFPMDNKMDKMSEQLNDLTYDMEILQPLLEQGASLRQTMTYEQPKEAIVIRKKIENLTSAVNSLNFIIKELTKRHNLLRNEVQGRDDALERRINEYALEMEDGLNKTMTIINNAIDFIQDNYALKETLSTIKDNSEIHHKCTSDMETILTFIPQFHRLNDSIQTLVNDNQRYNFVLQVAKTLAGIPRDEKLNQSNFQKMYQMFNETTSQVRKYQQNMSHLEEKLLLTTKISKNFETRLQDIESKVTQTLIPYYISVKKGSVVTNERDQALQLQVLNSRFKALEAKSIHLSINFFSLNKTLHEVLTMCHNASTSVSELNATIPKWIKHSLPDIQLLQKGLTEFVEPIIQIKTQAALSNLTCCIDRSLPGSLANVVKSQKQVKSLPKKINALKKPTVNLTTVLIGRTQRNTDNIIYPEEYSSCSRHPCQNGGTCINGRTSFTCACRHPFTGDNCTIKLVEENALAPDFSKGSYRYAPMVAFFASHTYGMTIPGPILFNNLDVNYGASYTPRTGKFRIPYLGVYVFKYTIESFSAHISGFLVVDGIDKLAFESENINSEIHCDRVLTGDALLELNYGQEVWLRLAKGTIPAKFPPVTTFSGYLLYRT
In words: affinity purification with mass spectrometry; membrane protein extract of HEK293T; antibody with lysate supernatant 12 h at 4 °C; protein A/G magnetic beads; SDS-PAGE, LC-MS (Q Exactive).

No constants are given. Whether binding was seen depends on the method and setting. In cells and extracts the contact can be indirect. These calls come from enrichment with a bait or labelling near it, and not all partners need be listed.

B1: hyaluronan mediated motility receptor (HMMR), found by IP-MS (protein, UniProt O75330 1-724)
chain: MSFPKAPLKRFNDPSGCAPSPGAYDVKTLEVLKGPVSFQKSQRFKQQKESKQNLNVDKDTTLPASARKVKSSESKESQKNDKDLKILEKEIRVLLQERGAQDRRIQDLETELEKMEARLNAALREKTSLSANNATLEKQLIELTRTNELLKSKFSENGNQKNLRILSLELMKLRNKRETKMRGMMAKQEGMEMKLQVTQRSLEESQGKIAQLEGKLVSIEKEKIDEKSETEKLLEYIEEISCASDQVEKYKLDIAQLEENLKEKNDEILSLKQSLEENIVILSKQVEDLNVKCQLLEKEKEDHVNRNREHNENLNAEMQNLKQKFILEQQEREKLQQKELQIDSLLQQEKELSSSLHQKLCSFQEEMVKEKNLFEEELKQTLDELDKLQQKEEQAERLVKQLEEEAKSRAEELKLLEEKLKGKEAELEKSSAAHTQATLLLQEKYDSMVQSLEDVTAQFESYKALTASEIEDLKLENSSLQEKAAKAGKNAEDVQHQILATESSNQEYVRMLLDLQTKSALKETEIKEITVSFLQKITDLQNQLKQQEEDFRKQLEDEEGRKAEKENTTAELTEEINKWRLLYEELYNKTKPFQLQLDAFEVEKQALLNEHGAAQEQLNKIRDSYAKLLGHQNLKQKIKHVVKLKDENSQLKSEVSKLRCQLAKKKQSETKLQEELNKVLGIKHFDPSKAFHHESKENFALKTPLKEGNTNCYRAPMECQESWK
With B1, the binding result is on record as “binds”.

Source of the values: publication PMC11289102.
